Data on 1 substance can be found in PMC12750601.

Sequences of proteins named here, by UniProt entry; tags and fusion partners are left off.
UniProt Q14145: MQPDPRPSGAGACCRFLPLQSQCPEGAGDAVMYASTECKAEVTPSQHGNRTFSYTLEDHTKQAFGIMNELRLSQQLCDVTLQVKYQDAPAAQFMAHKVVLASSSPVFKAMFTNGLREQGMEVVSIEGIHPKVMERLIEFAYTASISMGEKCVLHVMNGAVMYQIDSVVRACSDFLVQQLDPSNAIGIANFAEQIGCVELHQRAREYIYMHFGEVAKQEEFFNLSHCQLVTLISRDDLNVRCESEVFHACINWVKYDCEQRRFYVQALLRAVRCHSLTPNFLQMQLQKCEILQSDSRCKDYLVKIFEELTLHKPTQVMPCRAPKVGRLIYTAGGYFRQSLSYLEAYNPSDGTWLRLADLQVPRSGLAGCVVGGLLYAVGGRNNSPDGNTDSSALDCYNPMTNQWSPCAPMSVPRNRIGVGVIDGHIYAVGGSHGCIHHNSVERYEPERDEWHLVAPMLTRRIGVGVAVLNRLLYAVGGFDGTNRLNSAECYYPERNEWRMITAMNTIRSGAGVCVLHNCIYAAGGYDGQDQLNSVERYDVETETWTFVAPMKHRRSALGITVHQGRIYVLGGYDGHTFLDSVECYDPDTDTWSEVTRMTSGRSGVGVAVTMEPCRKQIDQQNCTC

For this test, the target named is T1, Tribbles homolog 2 (human (endogenous in HepG2)) (UniProt Q92519).
T1 sequence: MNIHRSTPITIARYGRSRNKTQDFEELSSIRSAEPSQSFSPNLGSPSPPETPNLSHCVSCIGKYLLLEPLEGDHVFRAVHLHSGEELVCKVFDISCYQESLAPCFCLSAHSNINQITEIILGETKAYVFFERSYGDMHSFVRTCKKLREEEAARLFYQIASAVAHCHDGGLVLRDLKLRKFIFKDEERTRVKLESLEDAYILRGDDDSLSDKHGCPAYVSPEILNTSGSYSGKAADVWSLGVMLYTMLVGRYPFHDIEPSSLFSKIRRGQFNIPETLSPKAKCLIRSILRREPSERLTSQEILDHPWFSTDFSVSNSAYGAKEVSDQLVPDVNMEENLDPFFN
As to the kind of experiment: affinity purification with mass spectrometry; IP of TRIB2 (anti-TRIB2, protein A/G magnetic beads, overnight at 4 °C) from HepG2 lysate; KEAP1 peptides identified by mass spectrometry.

These are yes or no findings as the source states them, for the method shown. In cells and extracts the contact can be indirect. Here binding means that the protein was enriched with, or labelled near, the bait; the list need not be complete.

In the case of KEAP1 (from UniProt Q14145 1-624), the binding result is on record as “binds”.
